{"sequences": {"note": "Protein sequences, listed by entry. Tags and fused reporters are not part of them. Residues count along the entry.", "UniProt P13500, residues 24-99": "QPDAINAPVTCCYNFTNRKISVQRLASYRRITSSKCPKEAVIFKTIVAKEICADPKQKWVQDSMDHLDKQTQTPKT"}, "source": "patent US20110033521A1", "about": "(RAPPAPORT FAMILY INSTITUTE FOR RESEARCH IN THE MEDICAL …, published 2011)", "binders": {"B1": {"name": "CCR2(E3)-IgG fusion protein (Fc fusion)", "chain": "GLSNCESTSQLDQATQVTET", "notes": "also called Ig-E3; CCR2-IgG; not shown: constant region (Hinge-CH2-CH3) of human IgG1 heavy chain, ligated downstream of CCR2 (E3)"}}, "key": {"[1]": {"target": "T1, recombinant human MCP-1 (CCL2) (human, UniProt P13500 24-99)", "T1 construct": "Bought recombinant protein; also called RHMCP-1; monocyte chemoattractant protein-1", "experiment": "direct ELISA (FIG. 3 legend)"}, "[2]": {"target": "T1, recombinant human MCP-1 (CCL2)", "experiment": "direct ELISA, chemokine coated at 100 ng/ml, CCR2(E3)-IgG at 5 ug/ml"}}, "note": "These are yes or no findings as the source states them, for the method shown. Some entries that bind do so weakly or less than the wild type. Where a sequence is shown, tags or fusion partners need not be part of it.", "data": [{"binder": "B1", "values": [{"measurement": "binding", "setting": "[1]", "value": "binds"}, {"measurement": "binding", "setting": "[2]", "value": "binds"}]}]}
